According to article doi:10.1101/2020.01.13.904904:
No constants are given. Whether binding was seen depends on the method and setting. Binding seen in cells or lysates may run through a third protein. Here binding means that the protein was enriched with, or labelled near, the bait; the list need not be complete.

Protein sequences, listed by entry. Tags and fused reporters are not part of them.
UniProt P70398: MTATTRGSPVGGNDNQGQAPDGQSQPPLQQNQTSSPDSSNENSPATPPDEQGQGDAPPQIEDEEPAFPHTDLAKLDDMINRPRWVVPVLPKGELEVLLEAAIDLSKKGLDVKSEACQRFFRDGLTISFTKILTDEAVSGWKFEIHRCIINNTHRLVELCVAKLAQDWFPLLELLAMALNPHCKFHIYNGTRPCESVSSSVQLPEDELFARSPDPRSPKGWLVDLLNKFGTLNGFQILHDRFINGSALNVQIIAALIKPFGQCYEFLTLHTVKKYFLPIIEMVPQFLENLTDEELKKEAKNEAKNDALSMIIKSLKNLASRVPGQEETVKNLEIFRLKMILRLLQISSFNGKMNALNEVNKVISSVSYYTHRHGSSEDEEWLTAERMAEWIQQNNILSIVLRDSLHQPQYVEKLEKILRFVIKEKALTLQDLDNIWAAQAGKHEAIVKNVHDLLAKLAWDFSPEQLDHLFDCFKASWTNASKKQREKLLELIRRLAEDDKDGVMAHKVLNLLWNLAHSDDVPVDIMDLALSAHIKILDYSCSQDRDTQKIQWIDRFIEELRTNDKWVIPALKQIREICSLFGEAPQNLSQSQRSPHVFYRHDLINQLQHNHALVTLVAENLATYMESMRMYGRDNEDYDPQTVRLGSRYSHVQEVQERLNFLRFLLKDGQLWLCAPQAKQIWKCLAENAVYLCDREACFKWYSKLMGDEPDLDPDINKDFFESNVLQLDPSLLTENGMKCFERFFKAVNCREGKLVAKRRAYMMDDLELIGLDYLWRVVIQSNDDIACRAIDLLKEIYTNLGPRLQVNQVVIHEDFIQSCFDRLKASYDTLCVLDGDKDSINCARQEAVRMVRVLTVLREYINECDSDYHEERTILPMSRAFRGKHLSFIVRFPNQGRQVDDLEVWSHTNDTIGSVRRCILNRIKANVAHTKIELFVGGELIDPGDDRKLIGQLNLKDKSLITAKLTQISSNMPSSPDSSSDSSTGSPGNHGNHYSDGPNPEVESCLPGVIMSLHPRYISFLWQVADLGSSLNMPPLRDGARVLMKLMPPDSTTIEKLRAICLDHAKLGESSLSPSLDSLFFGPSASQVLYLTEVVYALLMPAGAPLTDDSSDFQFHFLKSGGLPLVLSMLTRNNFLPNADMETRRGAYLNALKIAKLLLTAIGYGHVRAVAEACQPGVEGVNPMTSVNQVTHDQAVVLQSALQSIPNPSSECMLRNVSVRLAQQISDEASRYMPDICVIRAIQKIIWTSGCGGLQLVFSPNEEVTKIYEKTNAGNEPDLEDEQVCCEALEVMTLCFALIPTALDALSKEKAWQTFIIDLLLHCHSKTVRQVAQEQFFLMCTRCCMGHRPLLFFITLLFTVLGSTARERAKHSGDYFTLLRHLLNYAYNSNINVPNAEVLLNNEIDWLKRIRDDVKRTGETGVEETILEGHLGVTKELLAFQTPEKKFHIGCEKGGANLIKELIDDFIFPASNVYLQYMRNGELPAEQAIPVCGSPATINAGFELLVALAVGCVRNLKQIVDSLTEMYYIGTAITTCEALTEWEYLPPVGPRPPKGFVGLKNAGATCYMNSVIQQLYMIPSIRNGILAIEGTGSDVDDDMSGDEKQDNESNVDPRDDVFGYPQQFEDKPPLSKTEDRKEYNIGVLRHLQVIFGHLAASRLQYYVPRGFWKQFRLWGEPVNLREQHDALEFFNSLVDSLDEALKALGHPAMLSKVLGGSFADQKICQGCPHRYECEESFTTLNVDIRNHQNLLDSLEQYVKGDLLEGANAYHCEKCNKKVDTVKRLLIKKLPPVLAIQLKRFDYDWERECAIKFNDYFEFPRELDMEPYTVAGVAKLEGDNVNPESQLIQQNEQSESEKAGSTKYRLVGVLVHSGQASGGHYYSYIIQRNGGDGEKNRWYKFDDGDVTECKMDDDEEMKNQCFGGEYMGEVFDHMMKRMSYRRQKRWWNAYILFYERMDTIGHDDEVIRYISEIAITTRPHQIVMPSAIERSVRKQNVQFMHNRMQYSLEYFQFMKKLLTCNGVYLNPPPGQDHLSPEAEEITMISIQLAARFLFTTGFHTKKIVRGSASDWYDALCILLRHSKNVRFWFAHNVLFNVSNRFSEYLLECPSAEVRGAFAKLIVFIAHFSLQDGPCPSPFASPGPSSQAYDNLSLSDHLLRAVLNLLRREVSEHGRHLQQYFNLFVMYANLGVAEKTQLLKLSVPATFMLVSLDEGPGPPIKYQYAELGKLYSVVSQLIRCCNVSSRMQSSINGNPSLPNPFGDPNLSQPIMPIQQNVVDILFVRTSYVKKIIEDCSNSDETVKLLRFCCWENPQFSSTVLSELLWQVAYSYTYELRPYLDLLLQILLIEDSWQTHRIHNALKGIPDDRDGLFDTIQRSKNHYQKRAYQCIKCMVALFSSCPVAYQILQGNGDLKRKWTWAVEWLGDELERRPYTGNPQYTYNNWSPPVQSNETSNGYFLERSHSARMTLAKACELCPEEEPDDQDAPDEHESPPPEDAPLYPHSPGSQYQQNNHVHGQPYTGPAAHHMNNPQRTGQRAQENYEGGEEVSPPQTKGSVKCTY
UniProt P83917: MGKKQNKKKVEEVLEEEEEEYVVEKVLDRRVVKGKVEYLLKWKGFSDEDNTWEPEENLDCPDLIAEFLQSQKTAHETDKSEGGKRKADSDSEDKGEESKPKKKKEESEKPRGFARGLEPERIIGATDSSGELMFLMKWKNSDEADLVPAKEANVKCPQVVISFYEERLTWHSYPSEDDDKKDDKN
UniProt Q3URU2: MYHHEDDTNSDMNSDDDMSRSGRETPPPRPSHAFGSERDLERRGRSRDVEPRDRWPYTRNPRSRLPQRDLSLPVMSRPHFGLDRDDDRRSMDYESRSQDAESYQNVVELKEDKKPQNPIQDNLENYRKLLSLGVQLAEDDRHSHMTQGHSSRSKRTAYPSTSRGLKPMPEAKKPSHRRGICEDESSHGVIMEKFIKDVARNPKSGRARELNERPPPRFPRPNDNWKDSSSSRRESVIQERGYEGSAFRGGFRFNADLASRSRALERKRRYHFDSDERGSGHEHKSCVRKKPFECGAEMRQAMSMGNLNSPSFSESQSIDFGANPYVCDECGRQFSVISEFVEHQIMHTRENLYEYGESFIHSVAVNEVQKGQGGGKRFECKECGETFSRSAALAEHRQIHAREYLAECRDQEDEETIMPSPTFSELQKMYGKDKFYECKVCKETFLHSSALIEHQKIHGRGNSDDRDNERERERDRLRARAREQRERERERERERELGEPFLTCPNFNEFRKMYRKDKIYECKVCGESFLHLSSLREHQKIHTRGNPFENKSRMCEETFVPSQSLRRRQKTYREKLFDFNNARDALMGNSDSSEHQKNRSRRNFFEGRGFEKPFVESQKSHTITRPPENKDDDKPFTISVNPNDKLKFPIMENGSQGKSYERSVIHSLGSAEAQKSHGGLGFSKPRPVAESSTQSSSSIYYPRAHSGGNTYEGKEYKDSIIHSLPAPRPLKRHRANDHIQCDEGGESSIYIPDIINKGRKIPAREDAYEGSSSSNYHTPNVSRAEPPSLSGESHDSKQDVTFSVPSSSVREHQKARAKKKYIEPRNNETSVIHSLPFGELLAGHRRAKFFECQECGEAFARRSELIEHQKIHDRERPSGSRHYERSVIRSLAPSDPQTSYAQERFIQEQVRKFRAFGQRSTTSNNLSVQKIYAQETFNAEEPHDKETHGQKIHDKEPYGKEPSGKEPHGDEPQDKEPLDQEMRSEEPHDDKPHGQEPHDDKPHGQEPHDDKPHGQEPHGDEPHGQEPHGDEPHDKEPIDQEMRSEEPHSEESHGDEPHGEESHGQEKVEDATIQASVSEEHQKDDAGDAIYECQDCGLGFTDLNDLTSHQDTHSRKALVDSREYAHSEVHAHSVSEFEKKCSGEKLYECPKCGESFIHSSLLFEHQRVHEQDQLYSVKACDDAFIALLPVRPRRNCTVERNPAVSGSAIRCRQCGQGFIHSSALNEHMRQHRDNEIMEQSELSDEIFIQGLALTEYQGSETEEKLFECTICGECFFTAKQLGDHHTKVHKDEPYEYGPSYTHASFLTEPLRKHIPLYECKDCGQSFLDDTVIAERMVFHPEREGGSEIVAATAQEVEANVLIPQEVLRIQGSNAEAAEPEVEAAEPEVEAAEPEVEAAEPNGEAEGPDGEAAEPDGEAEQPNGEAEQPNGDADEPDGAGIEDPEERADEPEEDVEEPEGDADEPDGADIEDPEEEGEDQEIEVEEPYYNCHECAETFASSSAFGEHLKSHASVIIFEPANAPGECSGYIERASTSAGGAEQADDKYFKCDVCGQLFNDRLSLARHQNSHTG
UniProt Q8BX22: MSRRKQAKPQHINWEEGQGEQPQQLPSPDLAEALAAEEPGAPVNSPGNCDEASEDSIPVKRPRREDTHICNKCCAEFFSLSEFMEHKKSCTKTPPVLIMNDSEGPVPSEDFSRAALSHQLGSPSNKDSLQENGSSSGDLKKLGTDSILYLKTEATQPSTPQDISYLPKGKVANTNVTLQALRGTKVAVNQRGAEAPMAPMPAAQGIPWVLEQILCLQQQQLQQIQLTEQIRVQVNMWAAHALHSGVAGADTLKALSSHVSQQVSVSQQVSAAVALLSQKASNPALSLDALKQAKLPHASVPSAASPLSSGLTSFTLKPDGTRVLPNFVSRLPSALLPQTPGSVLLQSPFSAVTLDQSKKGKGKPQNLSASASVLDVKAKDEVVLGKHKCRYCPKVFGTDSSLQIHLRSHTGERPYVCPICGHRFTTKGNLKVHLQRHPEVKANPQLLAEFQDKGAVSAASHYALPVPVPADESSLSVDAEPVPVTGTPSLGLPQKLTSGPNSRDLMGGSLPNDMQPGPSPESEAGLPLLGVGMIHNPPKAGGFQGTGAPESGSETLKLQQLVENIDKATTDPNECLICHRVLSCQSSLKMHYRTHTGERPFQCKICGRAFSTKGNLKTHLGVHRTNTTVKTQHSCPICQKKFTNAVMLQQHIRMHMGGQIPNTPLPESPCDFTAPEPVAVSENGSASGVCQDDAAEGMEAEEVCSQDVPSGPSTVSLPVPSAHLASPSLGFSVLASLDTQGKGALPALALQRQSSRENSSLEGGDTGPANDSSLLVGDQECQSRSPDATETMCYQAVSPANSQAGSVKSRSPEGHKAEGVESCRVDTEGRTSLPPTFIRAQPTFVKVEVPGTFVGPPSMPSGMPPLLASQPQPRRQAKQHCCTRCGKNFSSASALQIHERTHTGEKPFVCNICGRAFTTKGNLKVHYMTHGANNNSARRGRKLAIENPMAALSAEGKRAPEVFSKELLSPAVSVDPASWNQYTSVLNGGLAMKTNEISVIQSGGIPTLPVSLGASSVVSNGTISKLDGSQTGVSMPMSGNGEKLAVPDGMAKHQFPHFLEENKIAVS

T1: ESRRB (mouse (endogenous in ESC)) (UniProt Q61539)
T1 sequence: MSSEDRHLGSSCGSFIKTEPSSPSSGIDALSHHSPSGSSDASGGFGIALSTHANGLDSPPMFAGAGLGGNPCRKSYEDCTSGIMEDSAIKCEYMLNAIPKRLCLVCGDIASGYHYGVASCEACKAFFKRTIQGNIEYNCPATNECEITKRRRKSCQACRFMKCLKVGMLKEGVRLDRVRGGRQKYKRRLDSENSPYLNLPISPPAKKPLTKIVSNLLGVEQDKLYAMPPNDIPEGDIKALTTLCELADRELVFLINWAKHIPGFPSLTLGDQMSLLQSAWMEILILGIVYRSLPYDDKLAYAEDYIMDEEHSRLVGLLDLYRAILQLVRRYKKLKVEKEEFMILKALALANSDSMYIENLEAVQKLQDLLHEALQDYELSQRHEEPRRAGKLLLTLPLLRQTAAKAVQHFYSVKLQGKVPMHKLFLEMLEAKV

B1: Gag protein PEG10 (protein, UniProt Q7TN75 1-958)
chain: MAAAGGSSNCPPPPPPPPPNNNNNNNTPKSPGVPDAEDDDERRHDELPEDINNFDEDMNRQFENMNLLDQVELLAQSYSLLDHLDDFDDDDEDDDFDPEPDQDELPEYSDDDDLELQGAAAAPIPNFFSDDDCLEDLPEKFDGNPDMLGPFMYQCQLFMEKSTRDFSVDRIRVCFVTSMLIGRAARWATAKLQRCTYLMHNYTAFMMELKHVFEDPQRREAAKRKIRRLRQGPGPVVDYSNAFQMIAQDLDWTEPALMDQFQEGLNPDIRAELSRQEAPKTLAALITACIHIERRLARDAAAKPDPSPRALVMPPNSQTDPTEPVGGARMRLSKEEKERRRKMNLCLYCGNGGHFADTCPAKASKNSPPGKLPGPAVGGPSATGPERIRSPPSEASTQHLQVMLQIHMPGRPTLFVRAMIDSGASGNFIDQDFVIQNAIPLRIKDWPVMVEAIDGHPIASGPIILETHHLIVDLGDHREILSFDVTQSPFFPIVLGIRWLSTHDPHITWSTRSIVFNSDYCRLRCRMFAQIPSNLLFTVPQPNLHPYLLHHVHPHVHPHMHQHLHQHLHQFLHPDPHQYPHPDPHYHHHQQADMQHQLQQYLYQYLYYHLYPVMHHHLPPDQHEHLHEYLHQYLHQYLHQFLHHHLHPDLHQYLYQYLHNHMNPDPHHHPHPDPPQDPHHPPHQDPHQHPDPHQDPPHQDPHQDAHQDPHMDPHLHQHQHPQPQPHPQQHPNHPQQPPFFYHMAGFRIYHPVRYYYIQNVYTPVDEHVYPGHRVVDPNIEMIPGAHSLPSGHLYSMSESEMNALRNFVDRNVKDGLMTPTVAPNGAQVLQVKRGWKLQVTYNCRAPQSGTIQNQYLRMSLPNMGDPAHLASYGEFVQVPGYPYPAYVYYTSPHMMTAWYPVGRDVHGRIIVVPVVITWSQNTNRQPPVPQYPPPQPPPPPPPPPPPPPPPPASSCSAA

Columns and labels:
[1] = biological target: Deubiquitinase USP9X (mouse (endogenous in ESC)) (UniProt P70398); assay: affinity purification with mass spectrometry
[2] = biological target: T1, ESRRB (mouse (endogenous in ESC)); assay: affinity purification with mass spectrometry

Molecule	binding [1]	binding [2]
chromatin factor CBX1 (from UniProt P83917 1-185)	binds	
Gag protein PEG3 (from UniProt Q3URU2 1-1571)	binds	
pluripotency transcription factor SALL4 (from UniProt Q8BX22 1-1067)	binds	
Deubiquitinase USP9X (from UniProt P70398 1-2559) (enzyme)		binds
B1	binds	
